Test results as given in PMC12454742.
These are yes or no findings as the source states them, for the method shown. Some entries that bind do so weakly or less than the wild type. Where a sequence is shown, tags or fusion partners need not be part of it.

T1: CAP-D3 (condensin II subunit), yeast two-hybrid fusion (Arabidopsis thaliana) (UniProt O24610)
T1 sequence: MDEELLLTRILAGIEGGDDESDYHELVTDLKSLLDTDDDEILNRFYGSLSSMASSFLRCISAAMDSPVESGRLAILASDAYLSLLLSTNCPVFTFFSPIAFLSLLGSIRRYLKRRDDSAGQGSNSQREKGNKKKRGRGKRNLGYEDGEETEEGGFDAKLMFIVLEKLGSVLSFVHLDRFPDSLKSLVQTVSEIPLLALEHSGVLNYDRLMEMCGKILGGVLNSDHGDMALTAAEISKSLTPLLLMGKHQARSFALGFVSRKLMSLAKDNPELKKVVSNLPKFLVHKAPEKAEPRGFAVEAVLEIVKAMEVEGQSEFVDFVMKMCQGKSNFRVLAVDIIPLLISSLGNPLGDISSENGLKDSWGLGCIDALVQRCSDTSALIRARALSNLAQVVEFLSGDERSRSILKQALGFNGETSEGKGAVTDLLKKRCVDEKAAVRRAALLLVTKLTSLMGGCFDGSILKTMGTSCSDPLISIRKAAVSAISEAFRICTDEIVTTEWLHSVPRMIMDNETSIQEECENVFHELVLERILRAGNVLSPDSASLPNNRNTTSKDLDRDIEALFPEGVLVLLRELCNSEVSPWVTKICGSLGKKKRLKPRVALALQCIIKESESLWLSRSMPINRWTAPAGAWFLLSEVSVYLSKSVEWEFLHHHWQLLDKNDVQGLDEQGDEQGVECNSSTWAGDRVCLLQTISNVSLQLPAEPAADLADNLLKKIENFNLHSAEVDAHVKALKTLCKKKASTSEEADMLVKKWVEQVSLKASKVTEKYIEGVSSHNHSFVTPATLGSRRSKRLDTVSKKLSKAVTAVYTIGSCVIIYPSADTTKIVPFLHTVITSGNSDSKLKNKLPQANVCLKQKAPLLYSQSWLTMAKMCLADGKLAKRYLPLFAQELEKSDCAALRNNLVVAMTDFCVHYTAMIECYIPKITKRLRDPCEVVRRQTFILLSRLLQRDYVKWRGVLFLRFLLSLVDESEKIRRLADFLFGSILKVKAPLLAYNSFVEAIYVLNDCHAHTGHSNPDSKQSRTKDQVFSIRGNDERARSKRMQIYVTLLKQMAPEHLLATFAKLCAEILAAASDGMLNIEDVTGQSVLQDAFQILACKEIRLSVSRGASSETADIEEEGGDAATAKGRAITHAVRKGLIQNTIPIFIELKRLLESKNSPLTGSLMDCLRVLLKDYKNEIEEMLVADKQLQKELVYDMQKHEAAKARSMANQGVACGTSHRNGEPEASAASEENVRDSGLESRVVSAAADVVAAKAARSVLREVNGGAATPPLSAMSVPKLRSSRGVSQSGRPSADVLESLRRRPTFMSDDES

T2: CAP-D2 (condensin I subunit), yeast two-hybrid fusion (Arabidopsis thaliana)
T2 sequence: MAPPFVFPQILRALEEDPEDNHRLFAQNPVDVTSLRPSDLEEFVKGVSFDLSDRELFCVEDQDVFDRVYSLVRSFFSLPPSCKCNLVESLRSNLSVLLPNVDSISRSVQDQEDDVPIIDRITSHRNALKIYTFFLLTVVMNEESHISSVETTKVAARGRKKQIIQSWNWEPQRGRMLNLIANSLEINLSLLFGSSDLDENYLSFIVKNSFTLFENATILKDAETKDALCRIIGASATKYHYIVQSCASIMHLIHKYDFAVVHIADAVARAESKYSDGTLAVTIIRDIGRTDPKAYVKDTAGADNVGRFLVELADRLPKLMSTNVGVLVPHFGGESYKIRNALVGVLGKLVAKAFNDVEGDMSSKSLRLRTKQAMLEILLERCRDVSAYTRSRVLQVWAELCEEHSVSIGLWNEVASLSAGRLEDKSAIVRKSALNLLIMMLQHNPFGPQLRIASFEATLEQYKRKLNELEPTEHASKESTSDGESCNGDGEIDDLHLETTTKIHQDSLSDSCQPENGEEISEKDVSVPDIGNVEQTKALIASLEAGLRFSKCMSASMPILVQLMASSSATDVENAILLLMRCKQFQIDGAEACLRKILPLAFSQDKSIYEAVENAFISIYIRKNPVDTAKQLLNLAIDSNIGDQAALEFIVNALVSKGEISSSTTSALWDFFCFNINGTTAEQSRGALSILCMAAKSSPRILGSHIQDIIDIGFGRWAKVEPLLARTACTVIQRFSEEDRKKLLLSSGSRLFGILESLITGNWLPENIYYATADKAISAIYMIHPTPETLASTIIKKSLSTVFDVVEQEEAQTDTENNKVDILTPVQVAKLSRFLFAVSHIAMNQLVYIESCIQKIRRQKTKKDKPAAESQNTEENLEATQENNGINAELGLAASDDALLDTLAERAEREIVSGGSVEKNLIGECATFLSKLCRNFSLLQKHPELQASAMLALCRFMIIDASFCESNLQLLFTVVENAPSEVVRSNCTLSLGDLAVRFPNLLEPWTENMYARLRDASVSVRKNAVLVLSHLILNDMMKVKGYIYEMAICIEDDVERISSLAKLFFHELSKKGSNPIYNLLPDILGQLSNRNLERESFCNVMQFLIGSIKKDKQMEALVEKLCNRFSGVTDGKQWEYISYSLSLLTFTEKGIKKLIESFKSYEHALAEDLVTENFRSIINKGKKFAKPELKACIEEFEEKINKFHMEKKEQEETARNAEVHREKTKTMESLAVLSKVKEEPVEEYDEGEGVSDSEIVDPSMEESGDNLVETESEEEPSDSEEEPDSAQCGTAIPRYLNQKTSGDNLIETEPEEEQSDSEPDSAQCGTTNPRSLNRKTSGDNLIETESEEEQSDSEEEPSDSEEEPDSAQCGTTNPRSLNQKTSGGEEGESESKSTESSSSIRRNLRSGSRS


Assays:
[1] = biological target: T1, CAP-D3 (condensin II subunit), yeast two-hybrid fusion (Arabidopsis thaliana); assay: two-hybrid; bait and prey plasmids co-transformed into yeast strain Y2H Gold; interaction checked on SD medium minus Trp, Leu and His; 3-5 days at 28 °C
[2] = biological target: T2, CAP-D2 (condensin I subunit), yeast two-hybrid fusion (Arabidopsis thaliana); assay: as above

binding [1]	binding [2]	Binder
binds	–	CAP-H2 (Chromosome-Associated Protein H2, condensin II kleisin subunit), yeast two-hybrid fusion (protein, UniProt Q9LUR0 1-683) MTSHGGGEVRGERIHTVQPERDLVANWEVDLSEKLEEYLLKICSGEITGNEEDGQIPVNFAEAALLLQGSVQVYSKKVEYLYNLVLRTLEFLSKQRDQEQSKGTSNENEASSSRQVDEEENDLFWNVDDIPVDTKNRLDSSVGGDTCPSQFVKPPANLVVLEGDCLDTSGDGGELESYLLATTHLYRDFILLDPCDAVAVNEFLGDNYGGKGRNSAHRGSSVRKSFHSSVGRSGGSARKSSVGKNQGTNVHLSPICGNGPNDQNCDQGSQPPVFEDNDHGFDMDNEYGGAMDFSDTDADEDDPWKPLNPYEPGKLKVKPFKKVKILKKIGWSITKDHMTSMFPLARPNGPISSELIEIWKMHGCASKDEQASQDIPYYEKLREMLVNGGNQPCGANGNYNDNDKDNHDEANNGDFHDFGEHDGDDAEHPFMDEDVLNMNDGGAAEFHNYDGFENGESNCQESLEDLCRSHLDALLANIAKSEKQTDLAARVSTWKQKIEQNLEEQELHPPFDIQEYGDRIINKLTVEESGNVETFTDLMKDQEKHEVARAFSALLQLVNNGDVDLEKPGNSTNEPMCYTAVKPFSVRLLKVHNRKNEKRGIHLPQKRAKSPITKGKSHESPPPKKRNTCSVSSQTRKVSLKISKINGVGVRCTPNSKKRRKGRSDDVTEVTEVASIEKSLGKL
–	binds	CAP-H (Chromosome-Associated Protein H, condensin I kleisin subunit), yeast two-hybrid fusion (protein, UniProt Q564K3 1-671) MDESLTPNPKQKPASTTTRIQAPTSPFFLGSNDDRLEREQARAARAAASRRRSVIFARGSQPETESDPCFDKQQILELFQNCIKLASENKINQKNTWELNLIDHLCEIIKVEDENNTETNFQKASCTLEAGVKIYSMRVDSVHSEAYKVLGGITRAGHDDGGDHEDAAGAVENATNQKKQPEKKISPLSTLEPSFDALNVKKFDVAFAVDPLYHQTSAQFDEGGAKGLLLNNLGVYGGCQVLFDSQEIPGKLVSSANKHDKSETIDLSFVKECVEQMVLNMRKKDEIVPSLRAIINQFDEENQRPSDTFSCGQQTTESFDISHGNDASYADDDEGYENFGTSFDYEGQSGDVDENFGPNEAEPIYSNFHEEVEPASLQDMDSDDRLENVDDYLFLSLGISSKQNSWAGPDHWKYRKTKGPDVQPASEIKSSPPAKKTRKKKQAEPELDFAKALEEEMPDIFAPPKNPKTLLLPASRTPCQTKLPEDCHYQPENLIKLFLLPNVMCLGRRRRKNSGETSRQQPDDYEHGESWGNDNVYDDDDGPFDDNENDQSDAEDTNTLISQPRQVNKIDVQYDKASKQVDVQVLKETLWECLQESHQPPIQDEEHQQEPPESRSFKVLLASFPDDCQAAERTQDISPHLCFICLLHLANEHNLSLIGSQNLDDLTIHLA
